The experiment relates to BDF1 mice, P388 leukemia ip, median survival T/C. In words: NCI In Vivo Anticancer Drug Screen. Data for tumor model P388 Leukemia (intraperitoneal) in B6D2F1 (BDF1) mice. Particulars: T/C endpoint: median survival time, higher T/C = longer survival. The procedure, abridged:
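Survival ratio, drug arm over vehicle arm, in mice with a transplanted tumour.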

Setting [1] is: dose: 100.0 mg/kg/injection, schedule: Q01DX009 (ip), vehicle: saline with Tween-80.
[2] abbreviates: dose: 400.0 mg/kg/injection, schedule: Q04DX003 (ip), vehicle: Klucel (hydroxypropylcellulose) (HPC).
[3] abbreviates: dose: 100.0 mg/kg/injection, schedule: Q04DX003 (ip), vehicle: Klucel (hydroxypropylcellulose) (HPC).

Each structure is given as a SMILES string. The list does not hold the whole screen: it gathers tests that were run many times, whatever their T/C, doses with no T/C, and many T/C values between a quarter and a half above the control. Other doses and runs of a compound stand elsewhere. T/C is the treated group as % of the vehicle group. Some doses have a count of surviving animals in place of a T/C: the source files T/C as zero there, which appears to mark a toxic dose or a test without result, not a measured value. Some doses without a T/C left all or most animals alive at the check, yet need not have been tolerated: the source hardly ever lists a survival T/C far under the control, and the zero likely stands for such cases as well. Counts of survivors are from the toxicity check (mostly the fifth day) where no day follows; animals may have died later. Schedules are NCI's codes, read here as Q, the interval in days (D) or hours (H), X, the number of doses. Where survival is the endpoint, this PubChem deposit counts one and a half times the control or more as active, and values a quarter to a half above the control carry no call in these data; other NCI protocols may use other cut-offs. Some T/C values are followed by the survivors on the day toxicity was checked, most often the fifth; without a count, all were alive then.

`O=C1C=CCCCC1`: the T/C under setting [1] is 131 % of control. Where the note is “dose: 150.0 mg/kg/injection, schedule: Q01DX009 (ip), vehicle: saline with Tween-80”, the survivor count is listed as 4 of 6.

On to `CC(C)OC(=O)C1(N)CCCC1`, for which the T/C by setting is: (dose: 264.0 mg/kg/injection, schedule: Q04DX003 (ip), vehicle: saline with Tween-80) 130 % of control; (dose: 264.0 mg/kg/injection, schedule: Q04DX003 (ip), vehicle: saline) 125 % of control.

As for `C#CCOCC(CCl)OC(N)=O` (configuration not stated), the survivor count (dose: 400.0 mg/kg/injection, schedule: Q01DX009 (ip), vehicle: saline with Tween-80) is given as 0 of 6. Besides, where the note is “dose: 400.0 mg/kg/injection, schedule: Q04DX003 (ip), vehicle: saline”, the T/C was 140 % of control [6 of 7 alive].

As for `COc1cc([C@@H]2c3cc4c(c(O)c3C[C@H]3COC(=O)[C@@H]32)OCO4)cc(OC)c1OC`, the T/C (dose: 0.5 mg/kg/injection, schedule: Q01DX010 (ip), vehicle: saline) is 127 % of control; the T/C (dose: 1.0 mg/kg/injection, schedule: Q01DX010 (ip), vehicle: carboxymethylcellulose (CMC)) was 128 % of control; the T/C (dose: 1.0 mg/kg/injection, schedule: Q01DX010 (ip), vehicle: saline) was 145 % of control; the T/C (dose: 2.0 mg/kg/injection, schedule: Q01DX001 (ip), vehicle: other) was 131 % of control; the T/C (dose: 2.0 mg/kg/injection, schedule: Q01DX010 (ip), vehicle: carboxymethylcellulose (CMC)) was 133 % of control; the T/C (dose: 4.0 mg/kg/injection, schedule: Q01DX001 (ip), vehicle: other) is 142 % of control. Also, the T/C was 145 % of control (dose: 4.0 mg/kg/injection, schedule: Q01DX010 (ip), vehicle: other) and 131 % of control (dose: 8.0 mg/kg/injection, schedule: Q01DX001 (ip), vehicle: saline). For the same compound, the survivor count reads like this: (dose: 4.0 mg/kg/injection, schedule: Q01DX010 (ip), vehicle: carboxymethylcellulose (CMC)) 3 of 6; (dose: 4.0 mg/kg/injection, schedule: Q01DX010 (ip), vehicle: saline) 2 of 6; (dose: 8.0 mg/kg/injection, schedule: Q01DX010 (ip), vehicle: saline) 0 of 6.

As to `NC(=O)Nc1cccc2ccccc12`, the survivor count by setting is: (dose: 100.0 mg/kg/injection, schedule: Q01DX009 (ip), vehicle: gum acacia) 6 of 6; under setting [2], 6 of 6.

On to `CC(=O)Nc1nnc(/C=C/c2ccc([N+](=O)[O-])o2)s1`, for which the survivor count reads like this: under setting [3], 6 of 6; (dose: 200.0 mg/kg/injection, schedule: Q04DX003 (ip), vehicle: Klucel (hydroxypropylcellulose) (HPC)) 5 of 6.

Consider `CC(=O)[O][Hg][c]1c(C)c(C)c(C)c(C)c1C`, for which the survivor count (dose: 25.0 mg/kg/injection, schedule: Q01DX009 (ip), vehicle: Klucel (hydroxypropylcellulose) (HPC)) was 6 of 6 and the survivor count (dose: 50.0 mg/kg/injection, schedule: Q01DX009 (ip), vehicle: Klucel (hydroxypropylcellulose) (HPC)) is 2 of 6.

With `Cc1ccc(S(=O)(=O)Cl)c(Cl)c1`, the survivor count (dose: 200.0 mg/kg/injection, schedule: Q04DX003 (ip), vehicle: saline with Tween-80) is reported as 6 of 6.

In the case of `CC(=O)C(C(C)=O)C(C(C)=O)C(C)=O.[Cu]`, the survivor count is, setting by setting: (dose: 50.0 mg/kg/injection, schedule: Q01DX005 (ip), vehicle: saline with Tween-80) 1 of 5; (dose: 100.0 mg/kg/injection, schedule: Q01DX005 (ip), vehicle: saline with Tween-80) 0 of 5; (dose: 200.0 mg/kg/injection, schedule: Q01DX005 (ip), vehicle: saline with Tween-80) 0 of 5.

`NC1CCCCC1.[O]=[Cr](=[O])([OH])[OH]`: for the setting “dose: 25.0 mg/kg/injection, schedule: Q01DX009 (ip), vehicle: saline”, the T/C is 127 % of control.

With `CC1(C)N=C(N)N=C(N)N1c1cccc(CN)c1`, the survivor count runs as follows: (dose: 200.0 mg/kg/injection, schedule: Q01DX009 (ip), vehicle: saline) 0 of 6; (dose: 200.0 mg/kg/injection, schedule: Q04DX003 (ip), vehicle: saline) 2 of 6.

`CCOC(=O)c1ccc(N=CNc2ccc(C(=O)OCC)cc2)cc1`: the survivor count runs as follows: (dose: 12.5 mg/kg/injection, schedule: Q04DX003 (ip), vehicle: saline with Tween-80) 6 of 6; (dose: 25.0 mg/kg/injection, schedule: Q01DX009 (ip), vehicle: saline with Tween-80) 6 of 6; (dose: 50.0 mg/kg/injection, schedule: Q01DX009 (ip), vehicle: saline with Tween-80) 6 of 6; under setting [1], 6 of 6.

In the case of `ClC1=C(Cl)C2(Cl)C3COCC3C1(Cl)C2(Cl)Cl` (configuration not stated), the survivor count reads like this: under setting [3], 6 of 6; under setting [2], 5 of 6.

For `COc1ccc(C(CCl)(CCl)c2ccc(OC)c(C)c2)cc1C`, the survivor count (dose: 200.0 mg/kg/injection, schedule: Q01DX009 (ip), vehicle: saline with Tween-80) is on record as 6 of 6.

For the origin of these results see PubChem BioAssay AID328 (DTP/NCI, 2004).
